Measurements published in PubChem BioAssay AID1671190 (National Center for Advancing Translational Sciences (NCATS), 2021).
Hit rate of the full screen: of about 580,000 compounds, about 6,100 (1.1%) were called active. Inconclusive results, whose numbers are uncertain, are shown with a selection of clear calls. Calls come from the whole dose curve; as a rule, active = well fitted inhibition curve with a large enough effect; inconclusive = small, poorly fitted or top-dose-only effect, or another doubt; inactive = no such curve, though single readings can be large or run the other way. Where the call is inconclusive, the potency comes from a doubtful curve fit.

Protein sequences, listed by entry. Tags and fused reporters are not part of them. Lines headed by an entry give the natural chain unless they say otherwise; changes in a name come on top.
UniProt P18054: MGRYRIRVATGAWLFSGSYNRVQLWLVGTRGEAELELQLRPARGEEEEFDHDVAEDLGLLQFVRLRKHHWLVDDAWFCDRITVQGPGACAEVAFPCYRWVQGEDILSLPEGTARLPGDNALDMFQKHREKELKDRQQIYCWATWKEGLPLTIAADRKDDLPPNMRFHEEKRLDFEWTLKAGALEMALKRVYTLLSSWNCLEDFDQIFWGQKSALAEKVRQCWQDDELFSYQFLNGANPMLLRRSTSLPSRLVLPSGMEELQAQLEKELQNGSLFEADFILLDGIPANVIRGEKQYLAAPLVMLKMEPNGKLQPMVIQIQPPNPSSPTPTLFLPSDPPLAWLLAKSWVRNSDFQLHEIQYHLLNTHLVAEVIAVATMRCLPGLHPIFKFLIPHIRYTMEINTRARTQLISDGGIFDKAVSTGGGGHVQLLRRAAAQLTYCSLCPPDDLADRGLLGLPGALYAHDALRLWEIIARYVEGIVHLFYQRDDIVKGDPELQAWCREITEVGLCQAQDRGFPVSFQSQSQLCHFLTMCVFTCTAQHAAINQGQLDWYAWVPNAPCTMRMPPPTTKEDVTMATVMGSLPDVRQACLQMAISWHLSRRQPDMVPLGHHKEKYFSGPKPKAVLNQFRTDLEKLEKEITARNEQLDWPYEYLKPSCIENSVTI

The compounds below were run against Polyunsaturated fatty acid lipoxygenase ALOX12 (Homo sapiens) (UniProt P18054) (assay: Primary qHTS assay for inhibitors of human arachidonate 12S-lipoxygenase (ALOX12): Round 2). Conditions: purified 12hLO, xylenol orange hydroperoxide absorbance; series mostly up to 108 µM.
Method in brief: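 Hydroperoxide product was detected by ferrous iron/xylenol orange as the 573 to 405 nm absorbance ratio. Arachidonic acid at 40 uM (final) was turned over for 30 min at room temperature by 150 nM human 12hLO, pH 7.0 Hepes buffer, after 15 min compound preincubation.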
Potency is the fitted concentration of half-maximal effect.

Compound	Potency
COc1ccccc1/C=N/NC(=O)CC(=O)NCc1ccccc1	inconclusive: 2 µM [inhibitor, full curve, poor fit]
Fc1ccc(OCc2nnc(-c3ccc(Br)cc3)o2)cc1	inactive
COc1ccccc1OCCCN1CC[C@@](C)(O)[C@@H](O)C1	inactive
Cc1cccc(-n2nnnc2C2(N3CCCC3)CCCC2)c1	inactive
Cc1ccc(N2C(=O)C(CN3CCOCC3)C2c2ccccc2)cc1 (stereo unspecified)	inactive
O=C(/C=C/c1ccc(Cl)cc1Cl)N1CCN(c2ccc([N+](=O)[O-])c(N3CCOCC3)c2)CC1	inactive
O=C(NCCc1ccccc1F)N[C@@H](Cc1ccccc1)C(=O)O	inconclusive: 22.4 µM [inhibitor, single point]
Cc1cc(OCC(F)(F)C(F)(F)C(F)(F)C(F)F)nc(N)n1	inconclusive: 50.1 µM [inhibitor, partial curve, poor fit]
c1ccc(-c2nc3cc4ccccc4cc3[nH]2)nc1	inactive
CCc1ccc2oc(-c3cc(N)cc(C)c3O)nc2c1	inconclusive: 89.1 µM [inhibitor, single point]
O=C(c1ccccc1OCC1CCCN(Cc2cccnc2)C1)N1CCCCC1 (stereo unspecified)	inactive
Cc1ccc(Cn2c(C(=O)O)c(CNCc3cccs3)c3ccc(C)cc32)cc1	inconclusive: 39.8 µM [inhibitor, partial curve, poor fit]
COc1cc(/C=C/C(=O)c2ccc(F)cc2)cc(OC)c1OC	inactive
CC(C)(C)Cc1nnc(NS(=O)(=O)c2ccc(F)cc2)s1	inconclusive: 31.6 µM [inhibitor, partial curve, poor fit]
COc1cccc(C(=O)NCCSCc2c(F)cccc2Cl)c1	inconclusive: 100 µM [inhibitor, single point]
COc1ccc(NC(=O)C(C)C2CCOCC2)c(C)c1 (stereo unspecified)	inactive
CNC(=S)N1CCC(NC(=O)C23CC4CC(CC(C4)C2)C3)CC1	inactive
O=C(NCc1ccccc1)C1=C[C@@H](c2csc3ccccc23)C[C@@H](OCCCCO)O1	inconclusive: 79.4 µM [inhibitor, partial curve, poor fit]
COC(=O)C1=C(C)NC(=O)CC1c1cccc(Cl)c1Cl (stereo unspecified)	inconclusive: 0.316 µM [inhibitor, single point]
CCN1CCN(CC(=O)c2ccc(C)cc2)CC1	inconclusive: 1.26 µM [inhibitor, full curve, poor fit]
Nc1ccccc1Sc1nc2ccccc2[nH]1	inconclusive: 35.5 µM [inhibitor, partial curve, poor fit]

Some of these compounds in order of heavy-atom count, falling:
Compound	Potency
O=C(/C=C/c1ccc(Cl)cc1Cl)N1CCN(c2ccc([N+](=O)[O-])c(N3CCOCC3)c2)CC1	inactive
CCc1ccc2oc(-c3cc(N)cc(C)c3O)nc2c1	inconclusive: 89.1 µM [inhibitor, single point]
Nc1ccccc1Sc1nc2ccccc2[nH]1	inconclusive: 35.5 µM [inhibitor, partial curve, poor fit]
